In all, about 3,200 compounds were measured (“TSA(with NAD+) / Primary screening (TSA) / delta Tm (K)”: median about -0.04, highest 2% from about 0.37 on). Some of the results follow.

The chains behind the UniProt entries cited, without tags or fusion partners. Residues count along the entry.
UniProt Q96EB6, 2-747 limits assumed: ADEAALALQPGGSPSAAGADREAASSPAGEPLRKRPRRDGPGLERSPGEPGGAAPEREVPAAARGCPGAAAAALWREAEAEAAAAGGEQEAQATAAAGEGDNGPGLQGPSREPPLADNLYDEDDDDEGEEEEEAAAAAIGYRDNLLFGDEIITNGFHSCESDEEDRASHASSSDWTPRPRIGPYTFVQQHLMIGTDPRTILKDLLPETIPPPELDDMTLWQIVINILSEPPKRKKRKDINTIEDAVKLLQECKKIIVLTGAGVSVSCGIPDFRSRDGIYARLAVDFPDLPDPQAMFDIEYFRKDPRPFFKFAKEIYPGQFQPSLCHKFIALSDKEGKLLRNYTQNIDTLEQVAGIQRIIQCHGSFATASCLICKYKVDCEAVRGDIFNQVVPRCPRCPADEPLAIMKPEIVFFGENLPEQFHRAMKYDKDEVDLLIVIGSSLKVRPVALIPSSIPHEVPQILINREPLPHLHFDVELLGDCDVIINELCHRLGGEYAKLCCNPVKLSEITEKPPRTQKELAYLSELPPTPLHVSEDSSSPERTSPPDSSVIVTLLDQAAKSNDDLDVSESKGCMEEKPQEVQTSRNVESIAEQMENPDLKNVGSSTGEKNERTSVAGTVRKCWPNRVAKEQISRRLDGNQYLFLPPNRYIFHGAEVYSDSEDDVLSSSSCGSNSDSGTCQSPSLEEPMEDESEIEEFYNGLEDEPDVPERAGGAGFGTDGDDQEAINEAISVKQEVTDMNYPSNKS

The target of the assay is NAD-dependent deacetylase Sirtuin 1 (human, UniProt Q96EB6). The assay can be described thus: primary screen, delta tm. Also noted: single well (n = 1, as 'the same TSA'). Particulars: 10 µM.
For the compound `Cc1ccc(C(C)(C)C)cc1S(=O)(=O)Nc1cccc(C(=O)NNC(=O)c2cccc(S(=O)(=O)Nc3cccc(C(F)(F)F)c3)c2)c1`, the “TSA(with NAD+) / Primary screening (TSA) / delta Tm (K)” value was 0.65 K. On to `Cc1cnc(C(=O)NC(Cc2ccccc2)C(=O)N2CCCC2)cn1` (stereo not shown), for which the “TSA(with NAD+) / Primary screening (TSA) / delta Tm (K)” value is on record as -0.11 K.

As for `O=C(Nc1cccc(-c2nc(C3CC3)no2)c1)c1cccc(NC(=O)C2CCCCC2)c1`, the “TSA(with NAD+) / Primary screening (TSA) / delta Tm (K)” value is recorded as 0.19 K. The value for `NC(=O)C1CCN(C(=O)NCc2ccccc2CN2CCOCC2)C1` (stereo not shown) was -0.08 K.

Regarding `O=C(COC(=O)C12CC3CC(C1)CC(c1ccccc1)(C3)C2)N1CCc2ccccc21`, the “TSA(with NAD+) / Primary screening (TSA) / delta Tm (K)” value was -0.18 K. The value for `Cc1ccc(NC(=O)CN2CCN(C(=O)c3ccc(-c4ccc(Cl)cc4)o3)CC2)cc1` was 0.02 K; that for `CC(NCc1cccc2c1OCO2)c1ccc2c(c1)NC(=O)CO2` (stereo not shown) was -0.08 K; that for `CCC(O)CCN` (stereo not shown) was -0.28 K. As to `O=C(CN1CCN(Cc2cscn2)CC1)NC(c1ccccc1)C1CC1` (stereo not shown), the “TSA(with NAD+) / Primary screening (TSA) / delta Tm (K)” value came to 0.03 K.

`C=CCOc1cccc(/C=C2\Oc3cc(O)ccc3C2=O)c1`: the “TSA(with NAD+) / Primary screening (TSA) / delta Tm (K)” value is given as -0.03 K. The value for `Cc1nn(-c2ccccc2)c2sc(C(=O)NCc3cccc(NC(=O)C4CC4)c3)cc12` was 0.23 K; that for `Cc1[nH]c2ccc(Br)cc2c1CC(=O)N1CCC(C(N)=O)CC1` was -0.08 K; that for `NC(=O)C1Cc2ccccc2CN1C(=O)Cc1ccc2c(c1)CCCC2` (stereo not shown) was -0.13 K. With `Cc1nc(N2CCC(C(N)=O)CC2)c2c(CC(C)C)csc2n1`, the “TSA(with NAD+) / Primary screening (TSA) / delta Tm (K)” value is listed as -0.02 K.

As to `Cc1ccc(O)c(C(=O)NC2CCCNC2=O)c1` (stereo not shown), the “TSA(with NAD+) / Primary screening (TSA) / delta Tm (K)” value is -0.13 K. The value for `CCCCn1c(N)c(N(CC(C)C)C(=O)c2cccc(S(=O)(=O)N(C)c3ccccc3)c2)c(=O)[nH]c1=O` was -0.05 K; that for `O=C(Nc1ccc2c(c1)C(=O)NC2=O)Nc1cnc[nH]1` was -0.02 K; that for `CC1(c2cccc(NC(=O)c3ccc4ccccc4n3)c2)NC(=O)NC1=O` (stereo not shown) was -0.15 K.

As for `CNC(=O)c1ccc(CSc2nccn2Cc2ccccn2)cc1`, the “TSA(with NAD+) / Primary screening (TSA) / delta Tm (K)” value was determined as 0.07 K. The value for `CCn1c(SCc2cccc(F)c2)nc2ccsc2c1=O` was -0.19 K; that for `Cc1cc(N2CCN(CC(=O)Nc3ccccc3C(N)=O)CC2)nc(C(C)C)n1` was 0.06 K; that for `O=C(C1=C(O)C(=O)N(CCCN2CCOCC2)C1c1ccco1)c1ccco1` (stereo not shown) was -0.06 K. The value for `O=C1CN(c2ncnc3c2oc2ccccc23)CCN1` was -0.12 K; that for `CCOc1nc2cc(C(=O)OC(C)Cn3cccn3)ccc2[nH]1` (stereo not shown) was -0.11 K; that for `O=C(/C=C/c1cn(-c2ccccc2)nc1-c1cc2ccccc2o1)NCc1nnc2ccccn12` was -0.04 K. The value for `CC(NC(=O)CN1C(=O)C2CC=CCC2C1=O)C12CC3CC(CC(C3)C1)C2` (stereo not shown) was -0.03 K. `CCC(C)(O)CN` (stereo not shown): the “TSA(with NAD+) / Primary screening (TSA) / delta Tm (K)” value is on record as -0.19 K. For the compound `NC(=O)C1COCCN1S(=O)(=O)c1c(Cl)nc2ccccn12` (stereo not shown), the “TSA(with NAD+) / Primary screening (TSA) / delta Tm (K)” value is -0.02 K.

Take `Cc1ccc(C(=O)C2=C(O)C(=O)N(CCCN3CCOCC3)C2c2ccc(Cl)cc2)cc1` (stereo not shown): the “TSA(with NAD+) / Primary screening (TSA) / delta Tm (K)” value is listed as 0.03 K. The value for `NC(=O)CCn1cnc2sccc2c1=O` was -0.03 K. The value for `O=C(Nc1ccccc1Oc1ccccc1)c1cc(=O)c2ccccc2o1` was -0.09 K; that for `CN(CC(=O)NCc1ccco1)C(=O)c1ccc(-n2cccn2)cc1` was -0.11 K.

In the case of `CN(c1ccccc1)S(=O)(=O)c1cccc(NC(=O)COC(=O)C23CC4CC(CC(C4)C2)C3)c1`, the “TSA(with NAD+) / Primary screening (TSA) / delta Tm (K)” value is recorded as 0.13 K.

With `O=C(c1ccc2nnnn2c1)N(Cc1ccc(O)cc1)Cc1ccco1`, the “TSA(with NAD+) / Primary screening (TSA) / delta Tm (K)” value is -0.11 K. Consider `CN(c1ccccc1)S(=O)(=O)c1ccc(C(=O)NNC(=O)C23CC4CC(CC(C4)C2)C3)cc1`, for which the “TSA(with NAD+) / Primary screening (TSA) / delta Tm (K)” value amounted to 0.08 K. The value for `NC(=O)c1ccc(NC(=O)COC(=O)c2cc3c(s2)CCCCC3)cc1` was -0.13 K; that for `O=C(Cn1[nH]c(=O)ccc1=O)OCc1ncc(-c2cccc(Cl)c2)o1` was 0.07 K.

For `Nc1ncnc2c1ncn2CC(=O)O`, the “TSA(with NAD+) / Primary screening (TSA) / delta Tm (K)” value is reported as -0.11 K. The value for `CNC(=O)C(C)CN(C)c1ccc(Br)cc1C#N` (stereo not shown) was -0.22 K; that for `CC(C)NC(=O)Cn1cc(C(=O)C2CCCCC2)c2ccccc21` was 0.01 K.

For `CONC(=O)c1ccc2[nH]c(C)c(C)c2c1`, the “TSA(with NAD+) / Primary screening (TSA) / delta Tm (K)” value was -0.06 K.

For `COc1ccc(C2C(C(=O)c3cc4ccccc4o3)=C(O)C(=O)N2CCN2CCOCC2)cc1` (stereo not shown), the “TSA(with NAD+) / Primary screening (TSA) / delta Tm (K)” value is listed as -0.01 K. Turning to `CCCN1CCN(CCCOc2ccccc2)CC1`, the “TSA(with NAD+) / Primary screening (TSA) / delta Tm (K)” value is -0.12 K. Regarding `Cc1[nH]c2ccc(C(=O)N3CCCC(C(N)=O)C3)cc2c1C` (stereo not shown), the “TSA(with NAD+) / Primary screening (TSA) / delta Tm (K)” value is on record as -0.11 K. As for `NC(=O)COC(=O)C12CC3CC(C1)CC(c1ccccc1)(C3)C2`, the “TSA(with NAD+) / Primary screening (TSA) / delta Tm (K)” value is on record as -0.19 K.

Turning to `O=C(Cn1c(C(F)(F)F)nc2ccccc21)N/N=C1/C(=O)N(Cc2ccc(Cl)cc2)c2ccccc21`, the “TSA(with NAD+) / Primary screening (TSA) / delta Tm (K)” value is reported as -0.01 K.

For the origin of these results see paper PMC6925144, “A prospective compound screening contest identified broader inhibitors for Sirtuin 1” (Scientific Reports, 2019).
